# Test results published in PubChem BioAssay AID1347426 (Functional Genomics Laboratory (NCATS/FGL), 2020).
# The campaign covered roughly 31,000 sequences. About 1,400 (4.5%) were called active.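 Rule for the calls: active = median seed-adjusted z-score above 1 or below -1; inactive = the rest.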 The list shows a part of the results.
# Assay: Novel Modifiers of Survival Motor Neuron (SMN) Protein: Gene Identification via Genome-wide siRNA Screen;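 note: luminescence tracks full-length SMN protein made from the SMN2 reporter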
# Details: HEK293T SMN2-luciferase reporter, siRNA knockdown, 72 h; actives lie on both sides
# How it was run: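 HEK293T cells stably carrying an SMN2 promoter/splicing cassette–luciferase reporter were reverse-transfected with 1 pmol siRNA per well (druggable-genome library, 3 siRNAs per gene) and grown 72 h at 37 °C. Luminescence, normalized to negative-control siRNA and log10-transformed, was scored as MAD.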
row,Sequence,median seed-adjusted z-score
1,ACAUGUACUUCCUGAUUGATT against SLC11A1,inactive: -0.516
2,CAACAACUCUGACAAAUCATT against ZNF385B,inactive: 0.446
3,CGUAUAAGUUGGUAACAGATT against PCDHGB5,inactive: 0.464
4,CCUCCUUGUUAGUGUCUUUTT against CLEC11A,active: -1.1
5,GUACAAGGCCUGUAAAGUATT against KLC2,inactive: 0.0706
6,ACAAUGAAGUUCUCCCUGATT against PCGF1,inactive: 0.508
7,GGAUUUUGACGACGAGUUUTT against FNBP1,inactive: -0.168
8,CGAGAAUGACUAUCUUCAATT against STK32C,inactive: -0.311
9,GCAAACUGGUUCUUUCGGATT against CALCB,inactive: 0
10,GCAUUAUACGGACCUCGGATT against MMP20,inactive: 0.0623
11,GGGAAGAUAUUUGUCAGCATT against PLXNA2,inactive: 0.308
12,GCUGAAACUUGUCACAUCATT against TXNDC8,inactive: -0.281
13,CGAGCUGACUUCAACAGGATT against STC1,active: -1.36
14,CCAGCUCCUCUACGCCUUUTT against TRIB3,inactive: 0.00635
15,GUUUCGGACCUAUCUCUGATT against RBM3,inactive: 0.0539
16,GGCUGUACUGGGUCGAACATT against F2RL3,inactive: 0.133
17,GAAGUCACGUCACUACUUATT against ZNF644,inactive: 0.389
18,GUAUCGACAUCAUUCAAGATT against YME1L1,inactive: 0.131
19,CGUCUCCUUCCUUAACGAATT against TRPV3,inactive: -0.228
20,GAGAGAUGCCCUACACUAATT against FLJ16165,inactive: -0.404
21,GACUGUAUCCAAACGAAUUTT against SLITRK2,inactive: -0.246
22,AAAGGAGUGUGGAAACUUATT against ADAT1,inactive: 0.404

row,Sequence,median seed-adjusted z-score
1,UGGUCAUUAUGAUUAGCUATT against RNF149,inactive: -0.17
2,GAGAGACAAUCUUCAUGCATT against PADI1,inactive: 0
3,CUCCACCAUUUACAAAUUUTT against GTF3C5,inactive: 0.493
4,GCAUCUAUGCUGAGACAUUTT against MRPS28,inactive: -0.022
5,CACUCAUUACUUCCGGGUATT against BIRC3,inactive: -0.644
6,GGCAUAUCAAGAUCGGUUATT against IQGAP1,inactive: -0.615
7,GCCUUGUAUAAAAACAUAATT against B4GALT5,inactive: 0.104
8,AAGUACAAGGUCUCCAUAATT against CNTFR,inactive: 0
9,AAAUCUUCGAUUUCAUAAATT against ZNF440,inactive: 0.208
10,GGACGAUCACUGUUGUGCATT against RBM22,inactive: 0.0259
11,CGGUUCCUUUAUUACCAAATT against TNFRSF21,inactive: 0.225
12,CGGUUACGAUAAUGCGUUATT against ENPP5,inactive: -0.0499
13,CCACCAUAAUAGGUACCAATT against HMCN1,inactive: 0.00218
14,AAGUUCUGCUAUGAGCUAATT against TSP50,inactive: 0.133
15,GACUGACAAGAGAGGUUAATT against IPO7,inactive: -0.143
16,GCUUCAAAACCAAACAAGATT against TXNL4B,inactive: 0.762
17,GCAUUGUCCGUCUUCAUCATT against GLP1R,inactive: 0
18,GUGGUAUCGUUUACGGUUATT against SEC63,inactive: -0.159
19,GGCCUUACUUUAUUGGAUUTT against PDGFRA,inactive: 0.0399
20,CCUUAUUGAGGAACUUGAATT against PON3,inactive: -0.0823
21,CCUUCAGAAUGACCCAUUUTT against SLC43A3,inactive: 0.431
22,UCAUGGACCUGAUCAGAAATT against SLC1A6,inactive: 0.0455

row,Sequence,median seed-adjusted z-score
1,GGGAAGAUCCGAGACCAAATT against ATP2A1,inactive: -0.0384
2,AGAGGAGAGUGGAAUUCCATT against ARID3C,active: -1.32
3,GCUCUACCAUGAGGACCUUTT against PARP10,inactive: -0.454
4,CUACUACUUUAAUCCCUAATT against FDFT1,inactive: -0.143
5,CGGACUACGAUGGACCCAATT against GNAT1,inactive: -0.188
6,GAAUAACAACAAUCUUGAATT against MAP3K7IP3,inactive: 0.267
7,CUAUAGGUUUUAUAGCAUUTT against LIPA,inactive: 0.535
8,GAAUGAUGGUGGGAACUAUTT against BMP2K,inactive: -0.51
9,CGAAUAGUUUUGUUUGACATT against ZMPSTE24,inactive: -0.633
10,CAAAGCUCAUGGAACAUAATT against ZNF676,inactive: -0.499
11,GAGGGAAUCCUGUACAGGATT against FBXO44,inactive: -0.45
12,GAACUUUGUCAUUACCUAUTT against CTSF,inactive: 0.161
13,GCCUGUCGAGGAGAACAAATT against CASP14,inactive: 0.702
14,GCAUUAUCGUCAUCCUUGUTT against ADCYAP1R1,inactive: 0.404
15,GGCAGAUGGGAUUCGAAUATT against ZZEF1,inactive: 0.167
16,CCAAGGAACUGGAUGCGAATT against EPHA10,inactive: 0.502
17,GCAAGGUUUAAUGAACAAATT against GTF2E1,active: 1.76
18,CGUGGUACCAGACAUCUGATT against CCL17,inactive: 0.178
19,GGAAAAAGCUCUCAAGAAUTT against GNRHR,inactive: 0.0978
20,GAUGGAACAUUAAACAUCATT against ALDH6A1,inactive: -0.0908
21,ACAACAUCGAGAUCGAGUATT against LINGO1,inactive: -0.443
22,CAGCUGUGGGAAUCACUUUTT against CCS,inactive: 0.0581

# Looked up one by one from the list above:
row,Sequence,median seed-adjusted z-score
14,GCAUUAUCGUCAUCCUUGUTT against ADCYAP1R1,inactive: 0.404
15,GGCAGAUGGGAUUCGAAUATT against ZZEF1,inactive: 0.167
22,CAGCUGUGGGAAUCACUUUTT against CCS,inactive: 0.0581
11,GAGGGAAUCCUGUACAGGATT against FBXO44,inactive: -0.45
17,GCAAGGUUUAAUGAACAAATT against GTF2E1,active: 1.76
7,CUAUAGGUUUUAUAGCAUUTT against LIPA,inactive: 0.535

# Following part

row,Sequence,median seed-adjusted z-score
1,CAGAGAAUCCUAAUGAUAATT against LRP10,inactive: 0.109
2,GAUCCUGAGUUAGAGAAGATT against METTL3,inactive: 0.261
3,GCUUCACUCAGAUUCCGAUTT against DYNC1I2,inactive: -0.167
4,GGAAUAUGCAUAUCAUGGATT against LNPEP,inactive: -0.386
5,GCACUUAUACCAUACUAUUTT against CCNG2,inactive: -0.764
6,GGCUUCUACUCCUCAGUCATT against HOXC11,inactive: -0.188
7,GGAAAUAUCCUAAUGGUUUTT against SLC25A20,inactive: -0.183
8,GGAAGAAGCUGUUAAAGCATT against VEZF1,inactive: 0.974
9,CCACCGUCAUGUUUCUCUATT against HOXA13,inactive: -0.136
10,CAGAGAUGCGUGAGAAGUUTT against INSL3,inactive: -0.037
11,CUAUCAAAUCUGAACGUGATT against ENOX2,inactive: 0.0233
12,GAAUUCCAGUUGUUAGGAATT against DIO1,inactive: 0.0467
13,UCGUGUCCCUCUUCCGUAUTT against FZD7,inactive: -0.159
14,CCACUGUUGGAAUUAAAGATT against AOAH,inactive: -0.123
15,GCAGCUUGGUUUAACGAAUTT against HOOK1,inactive: 0.202
16,CCCUUAAUGUUACCUAUGATT against USP24,inactive: 0.101
17,ACACUUCUACUGGACCUCATT against CCL22,inactive: 0
18,CCCUGUCUUUAUAUACUGATT against CEPT1,inactive: 0.328
19,GAAUAUCGAUGGACUUAAATT against NAP1L5,inactive: 0.115
20,GCAUCAAGAGCAAACCGAATT against TNFRSF17,inactive: -0.0138
21,CCACAUAGGUCAGAAACGATT against CLDN17,inactive: 0
22,GGUAAAACAGGAACGUAUATT against GPR116,inactive: 0

row,Sequence,median seed-adjusted z-score
1,GGAAUUCCAGUAACGAUGATT against RNF149,inactive: -0.17
2,GGCUCUGAUGUGACCCUUATT against KIRREL,inactive: -0.74
3,GCUGCACCCUUAUAAGGAUTT against ACPP,inactive: 0.311
4,ACAUCAACGUGGAACGAGATT against EIF4A1,active: -1.05
5,GCACUAAGCAAAAACUAGATT against BCAP31,inactive: 0.277
6,GGCCUAGUGUAAUCUCCCATT against ZNF774,inactive: -0.0834
7,CAAGCAGCCUGGUACCACATT against PAQR8,inactive: 0
8,CUAUGGGUCGUGGAACAAATT against HSP90AA1,inactive: -0.323
9,GUUUUUACGUGACAAAAGATT against TBXAS1,inactive: 0
10,CAAUUACAUUCGAUAUCAUTT against ZNF20,inactive: -0.359
11,GAAGCUAGAACUUACCAAATT against KCNN2,inactive: -0.0251
12,GGAUGAUCGAUAAGAACGATT against PDCD6,inactive: 0.325
13,CAACAAGAAUAAGAAUUCATT against PLCD1,inactive: -0.0473
14,CGCAGAAGAUUGUAAGGCATT against RBP4,inactive: 0.0208
15,GGCAUUUAACAAUCGCUCATT against ZNF781,inactive: 0.0307
16,AGUUCUGGAUUGCCUGUGATT against RGS5,inactive: 0
17,GGAGCUCAGAUAAUAGGCATT against NPHS1,inactive: -0.0505
18,CAACAGCGAUUUGAUGGAATT against ERO1L,inactive: -0.251
19,GCCUAUUUUUAAGUCCGAATT against SETD2,inactive: -0.0192
